These are yes or no findings as the source states them, for the method shown. In cells and extracts the contact can be indirect. Some entries that bind do so weakly or less than the wild type. Where a sequence is shown, tags or fusion partners need not be part of it.
How the values were obtained:
Details in all cases: remark: other sources report otherwise
[1] = target: T1, pTRB:TRB-FLAG TRB1 (Telomere Repeat Binding factor 1 with 3xFLAG) (Arabidopsis thaliana), Q8VWK4; assay: co-IP; seedlings of FLAG-TRB x Myc-JMJ14 crossed lines; anti-FLAG M2 Affinity Gel, 2 h at 4 °C; IP buffer 50 mM Tris HCl pH 7.5, 150 mM NaCl, 1% TritonX-100; eluted with 3xFLAG peptide; western blot
T1 chain: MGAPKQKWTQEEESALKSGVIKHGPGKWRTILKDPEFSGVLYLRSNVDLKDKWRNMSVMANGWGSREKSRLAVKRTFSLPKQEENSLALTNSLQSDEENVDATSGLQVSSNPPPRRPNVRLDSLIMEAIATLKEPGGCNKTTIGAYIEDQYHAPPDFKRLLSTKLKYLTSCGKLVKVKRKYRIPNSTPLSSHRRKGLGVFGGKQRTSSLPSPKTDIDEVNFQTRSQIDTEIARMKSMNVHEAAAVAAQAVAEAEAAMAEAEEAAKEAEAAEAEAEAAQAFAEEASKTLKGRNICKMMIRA

[2] = target: T2, pTRB:TRB-FLAG TRB2 (Telomere Repeat Binding factor 2 with 3xFLAG) (Arabidopsis thaliana), Q9FJW5; assay: as above
T2 chain: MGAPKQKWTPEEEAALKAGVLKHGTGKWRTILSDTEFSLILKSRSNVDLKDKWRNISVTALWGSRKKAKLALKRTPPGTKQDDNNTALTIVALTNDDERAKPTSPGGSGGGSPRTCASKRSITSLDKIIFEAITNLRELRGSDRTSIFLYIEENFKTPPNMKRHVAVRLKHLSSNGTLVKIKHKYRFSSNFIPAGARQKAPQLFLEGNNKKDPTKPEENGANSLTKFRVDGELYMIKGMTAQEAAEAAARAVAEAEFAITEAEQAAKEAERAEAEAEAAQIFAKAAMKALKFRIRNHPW

[3] = target: T3, pTRB:TRB-FLAG TRB3 (Telomere Repeat Binding factor 3 with 3xFLAG) (Arabidopsis thaliana), Q9M2X3; assay: as above
T3 chain: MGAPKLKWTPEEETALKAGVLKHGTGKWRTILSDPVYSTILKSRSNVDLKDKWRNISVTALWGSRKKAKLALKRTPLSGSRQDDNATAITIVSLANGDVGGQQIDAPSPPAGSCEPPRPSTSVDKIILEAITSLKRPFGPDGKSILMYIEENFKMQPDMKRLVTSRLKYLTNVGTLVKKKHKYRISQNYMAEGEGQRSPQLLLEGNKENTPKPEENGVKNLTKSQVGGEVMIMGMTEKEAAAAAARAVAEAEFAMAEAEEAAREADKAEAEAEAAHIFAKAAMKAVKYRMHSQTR

[4] = target: T4, TRB1 fused with the C-terminal fragment of YFP (Arabidopsis thaliana), Q8VWK4; assay: split reporter; BiFC: N-terminal fragment of YFP on JMJ14 or NAC052, C-terminal fragment of YFP on TRBs; transient co-expression in Nicotiana benthamiana leaves; confocal microscopy; empty vector as control
T4 chain: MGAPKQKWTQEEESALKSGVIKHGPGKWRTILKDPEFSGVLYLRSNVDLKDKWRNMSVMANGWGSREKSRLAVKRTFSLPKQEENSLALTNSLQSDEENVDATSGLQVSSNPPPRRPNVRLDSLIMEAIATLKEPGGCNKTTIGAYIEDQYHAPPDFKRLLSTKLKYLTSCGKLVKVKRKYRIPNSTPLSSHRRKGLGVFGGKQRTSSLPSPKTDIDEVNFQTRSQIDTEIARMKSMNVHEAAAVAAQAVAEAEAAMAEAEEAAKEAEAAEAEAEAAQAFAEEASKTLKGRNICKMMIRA

[5] = target: T5, TRB2 fused with the C-terminal fragment of YFP (Arabidopsis thaliana), Q9FJW5; assay: as above
T5 chain: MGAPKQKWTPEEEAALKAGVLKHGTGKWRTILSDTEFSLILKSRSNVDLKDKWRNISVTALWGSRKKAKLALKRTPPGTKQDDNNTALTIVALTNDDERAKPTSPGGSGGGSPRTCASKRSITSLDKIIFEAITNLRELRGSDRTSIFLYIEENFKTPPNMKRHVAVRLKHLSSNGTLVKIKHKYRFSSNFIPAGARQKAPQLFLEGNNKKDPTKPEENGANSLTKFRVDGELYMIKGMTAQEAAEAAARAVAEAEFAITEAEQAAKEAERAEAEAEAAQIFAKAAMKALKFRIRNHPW

[6] = target: T6, TRB3 fused with the C-terminal fragment of YFP (Arabidopsis thaliana), Q9M2X3; assay: as above
T6 chain: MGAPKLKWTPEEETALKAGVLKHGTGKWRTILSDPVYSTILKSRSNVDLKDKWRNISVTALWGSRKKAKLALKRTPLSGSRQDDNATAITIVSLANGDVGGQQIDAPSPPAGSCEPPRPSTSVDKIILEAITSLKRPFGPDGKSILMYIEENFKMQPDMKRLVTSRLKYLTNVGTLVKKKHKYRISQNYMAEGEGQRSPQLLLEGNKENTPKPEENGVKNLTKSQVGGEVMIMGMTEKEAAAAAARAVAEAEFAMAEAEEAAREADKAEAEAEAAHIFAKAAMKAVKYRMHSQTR

Measured: binding

B1: pJMJ14:JMJ14-Myc (JUMONJI14 with 9xMyc), Q8GUI6 1-954 (protein)
chain: MDQLASLAESVAMEEDSEKQSIKGESSLEPDSTPSSPKITARWNPSEACRPLVDDAPIFYPTNEDFDDPLGYIEKLRSKAESYGICRIVPPVAWRPPCPLKEKKIWENSKFPTRIQFIDLLQNREPIKKSTKTKKRKRRRISKIGYTRRKRDSGCDTASSGSSDSEGKFGFQTGPDFTLEEFQKYDEYFKECYFQSEDHPGSKASENKKFKPKVKDLEGEYWRIVEQATDEVEVYYGADLETKKFGSGFPKYKPGYPISEADQYSQCGWNLNNLSRLPGSVLAFESCDISGVIVPWLYVGMCFSTFCWHVEDHHLYSMNYLHTGDPKVWYGIPGNHAESFENVMKKRLPDLFEEQPDLLHQLVTQLSPRILKEEGVPVYRAVQRSGEFILTFPKAYHSGFNCGFNCAEAVNVAPVDWLVHGQNAVEGYSKQRRKSSLSHDKLLLGAAMEATYCLWELSLSKKKTPVIARWKRVCSEDGLLTKAVKKRVQMEEERLNHLQDGFSLRKMEGDFDNKRERECFLCFYDLHMSASSCKCSPNRFACLIHAKDLCSCESKDRYILIRHTLDELWALVRALEGDLDAIDLWASKCRDQYPSQHPRAREYAYLKSAPCIKSRGSSKVQQREQNNLQLVSERLQSDLTSNKEVQLKQDGDSDVNRHGHESERNHVHGITDKSAVTDVKLGVGGKFDEKKISVESQNPHSVSDVGCSELAKKVDGCLGGKDQNAATNRLSLSVELLSSGSLVVKKLWCSKQAIYPKGFKSRVKFLSVLDPTNLTNYISEVLDAGLLGPLFRVSVEDYPTENFSNVSAEKCWQMVTQRLKLEIIKKCDQPVSSLTSLQPLESINGLEMFGFLSPHVIKVVEALDPKHQLEEYWNQKAVKLFGAEPIKEGEKDDTEKGGASDPSLDRDTRLLRGLLKKATPEELVMMHGLLCGETRNTELKEELSTLVDKMEISP
binds: [1] | [2] | [3]

B2: JMJ14 fused with the N-terminal fragment of YFP, Q8GUI6 1-954 (protein)
chain: MDQLASLAESVAMEEDSEKQSIKGESSLEPDSTPSSPKITARWNPSEACRPLVDDAPIFYPTNEDFDDPLGYIEKLRSKAESYGICRIVPPVAWRPPCPLKEKKIWENSKFPTRIQFIDLLQNREPIKKSTKTKKRKRRRISKIGYTRRKRDSGCDTASSGSSDSEGKFGFQTGPDFTLEEFQKYDEYFKECYFQSEDHPGSKASENKKFKPKVKDLEGEYWRIVEQATDEVEVYYGADLETKKFGSGFPKYKPGYPISEADQYSQCGWNLNNLSRLPGSVLAFESCDISGVIVPWLYVGMCFSTFCWHVEDHHLYSMNYLHTGDPKVWYGIPGNHAESFENVMKKRLPDLFEEQPDLLHQLVTQLSPRILKEEGVPVYRAVQRSGEFILTFPKAYHSGFNCGFNCAEAVNVAPVDWLVHGQNAVEGYSKQRRKSSLSHDKLLLGAAMEATYCLWELSLSKKKTPVIARWKRVCSEDGLLTKAVKKRVQMEEERLNHLQDGFSLRKMEGDFDNKRERECFLCFYDLHMSASSCKCSPNRFACLIHAKDLCSCESKDRYILIRHTLDELWALVRALEGDLDAIDLWASKCRDQYPSQHPRAREYAYLKSAPCIKSRGSSKVQQREQNNLQLVSERLQSDLTSNKEVQLKQDGDSDVNRHGHESERNHVHGITDKSAVTDVKLGVGGKFDEKKISVESQNPHSVSDVGCSELAKKVDGCLGGKDQNAATNRLSLSVELLSSGSLVVKKLWCSKQAIYPKGFKSRVKFLSVLDPTNLTNYISEVLDAGLLGPLFRVSVEDYPTENFSNVSAEKCWQMVTQRLKLEIIKKCDQPVSSLTSLQPLESINGLEMFGFLSPHVIKVVEALDPKHQLEEYWNQKAVKLFGAEPIKEGEKDDTEKGGASDPSLDRDTRLLRGLLKKATPEELVMMHGLLCGETRNTELKEELSTLVDKMEISP
binds: [4] | [5] | [6]

B3: NAC052 fused with the N-terminal fragment of YFP, Q9SQY0 1-451 (protein)
chain: MGRESVAVVTAPPSATAPGTASVATSLAPGFRFHPTDEELVSYYLKRKVLGQPVRFDAIGEVDIYKHEPWDLAVFSRLKTRDQEWYFYSALDKKYGNGARMNRATNRGYWKATGKDREIRRDILLLGMKKTLVFHSGRAPDGLRTNWVMHEYRLVEYETEKNGNLVQDAYVLCRVFHKNNIGPPSGNRYAPFMEEEWADDEGALIPGIDVKLRLEPPPVANGNDQMDQEIQSASKSLININEPPRETAPLDIESDQQNHHENDLKPEEHNNNNNYDENEETLKREQMEEEERPPRPVCVLNKEAPLPLLQYKRRRQSESNNNSSRNTQDHCSSTTTTVDNTTTLISSSAAATNTAISALLEFSLMGISDKKEKPQQPLRPHKEPLPPQTPLASPEEKVNDLQKEIHQMSVERETFKLEMMSAEAMISILQSRIDALRQENEELKKNNANGQ
binds: [4] | [5] | [6]

From article PMC10049986
